PMC9829410
No constants are given. Whether binding was seen depends on the method and setting. Binding seen in cells or lysates may run through a third protein. Some entries that bind do so weakly or less than the wild type.

Protein sequences, listed by entry. Tags and fused reporters are not part of them. Residues count along the entry.
UniProt P08581, residues 25-1390: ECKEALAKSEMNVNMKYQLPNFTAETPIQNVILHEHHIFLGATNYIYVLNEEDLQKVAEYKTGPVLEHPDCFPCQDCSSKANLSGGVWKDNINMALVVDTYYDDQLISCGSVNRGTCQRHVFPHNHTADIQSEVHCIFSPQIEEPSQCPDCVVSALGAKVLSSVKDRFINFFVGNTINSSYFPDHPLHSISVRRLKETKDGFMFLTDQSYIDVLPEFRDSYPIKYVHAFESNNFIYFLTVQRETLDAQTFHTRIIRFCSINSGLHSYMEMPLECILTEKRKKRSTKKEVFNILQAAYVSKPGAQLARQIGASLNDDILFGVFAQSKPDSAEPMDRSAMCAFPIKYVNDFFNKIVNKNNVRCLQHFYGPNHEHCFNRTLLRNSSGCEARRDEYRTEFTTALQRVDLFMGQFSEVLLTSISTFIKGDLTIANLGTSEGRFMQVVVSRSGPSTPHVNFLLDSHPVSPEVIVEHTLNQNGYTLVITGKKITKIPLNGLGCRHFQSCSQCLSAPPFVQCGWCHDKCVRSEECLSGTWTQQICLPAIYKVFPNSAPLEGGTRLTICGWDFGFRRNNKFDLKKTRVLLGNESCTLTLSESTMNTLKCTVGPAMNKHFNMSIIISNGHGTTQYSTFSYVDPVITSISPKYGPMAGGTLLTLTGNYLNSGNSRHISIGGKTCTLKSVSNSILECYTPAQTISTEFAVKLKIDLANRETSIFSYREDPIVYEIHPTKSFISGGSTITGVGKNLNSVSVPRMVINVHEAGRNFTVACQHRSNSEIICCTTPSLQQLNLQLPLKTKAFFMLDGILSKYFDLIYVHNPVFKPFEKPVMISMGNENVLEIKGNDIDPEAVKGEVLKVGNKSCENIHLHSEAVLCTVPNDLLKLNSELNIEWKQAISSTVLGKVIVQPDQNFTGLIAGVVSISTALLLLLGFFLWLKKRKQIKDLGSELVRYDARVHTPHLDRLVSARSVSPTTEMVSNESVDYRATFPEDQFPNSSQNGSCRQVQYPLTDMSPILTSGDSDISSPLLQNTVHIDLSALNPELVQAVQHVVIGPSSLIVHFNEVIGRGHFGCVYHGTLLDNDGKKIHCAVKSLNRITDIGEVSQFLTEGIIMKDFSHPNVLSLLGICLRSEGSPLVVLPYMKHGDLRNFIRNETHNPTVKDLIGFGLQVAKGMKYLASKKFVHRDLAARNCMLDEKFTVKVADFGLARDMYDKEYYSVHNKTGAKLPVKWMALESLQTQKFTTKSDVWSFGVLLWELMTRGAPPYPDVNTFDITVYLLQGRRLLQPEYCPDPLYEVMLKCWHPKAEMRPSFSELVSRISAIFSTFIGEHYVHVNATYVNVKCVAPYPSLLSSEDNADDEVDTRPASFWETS
UniProt P16070, residues 21-742: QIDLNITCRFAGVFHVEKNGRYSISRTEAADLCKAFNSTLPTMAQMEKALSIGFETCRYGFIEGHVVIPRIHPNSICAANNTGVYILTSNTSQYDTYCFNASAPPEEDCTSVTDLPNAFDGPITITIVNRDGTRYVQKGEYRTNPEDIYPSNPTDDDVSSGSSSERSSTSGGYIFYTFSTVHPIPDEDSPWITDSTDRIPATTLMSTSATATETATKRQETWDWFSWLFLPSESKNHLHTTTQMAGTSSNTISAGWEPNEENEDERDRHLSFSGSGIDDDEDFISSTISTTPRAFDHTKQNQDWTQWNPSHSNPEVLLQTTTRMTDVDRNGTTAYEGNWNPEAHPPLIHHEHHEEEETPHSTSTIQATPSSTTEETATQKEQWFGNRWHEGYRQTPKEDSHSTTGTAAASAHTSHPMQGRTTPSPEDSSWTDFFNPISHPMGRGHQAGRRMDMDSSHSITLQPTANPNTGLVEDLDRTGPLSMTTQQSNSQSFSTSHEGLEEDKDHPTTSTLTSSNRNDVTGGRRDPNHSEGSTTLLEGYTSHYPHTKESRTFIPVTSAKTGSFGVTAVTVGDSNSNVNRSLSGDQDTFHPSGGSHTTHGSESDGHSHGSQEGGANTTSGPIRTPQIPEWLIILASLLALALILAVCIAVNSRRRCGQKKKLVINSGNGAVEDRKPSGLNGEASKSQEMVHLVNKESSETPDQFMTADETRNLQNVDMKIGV

What was measured:
[1] = molecular target: cMET (human (endogenous in JJ012)) (UniProt P08581); assay: co-IP; IP with cMET antibody (IgG as control) from lysates of JJ012 vector control cells in NETN buffer (150 mM NaCl, 1 mM EDTA, 20 mM Tris-HCl, 0.5% NP40), overnight at 4°C, protein A/G, western blot
[2] = molecular target: cMET (human (endogenous in JJ012)) (UniProt P08581); assay: condition: only in cells that ectopically express SULF1; co-IP; IP with cMET antibody (IgG as control) from lysates of JJ012 cells stably expressing ectopic SULF1, NETN buffer, overnight at 4°C, protein A/G, western blot

CD44 (from UniProt P16070 21-742) (receptor)
binding [1]: binds | binding [2]: no binding
